# Values of other authors in patent publication US10377783B2, “Methods and compounds for enhancing contrast in magnetic resonance imaging (MRI)” (priority 2015, dated 2019).
# At least one structure is not confirmed: it was looked up by name or label, or the drawing left a doubt.
# Details: cited from earlier work
compound,measurement,value
"CNC[C@H](O)[C@@H](O)[C@H](O)[C@H](O)CO.CNC[C@H](O)[C@@H](O)[C@H](O)[C@H](O)CO.O=C([O-])CN(CCN(CC(=O)[O-])CC(=O)O)CCN(CC(=O)O)C(COCc1ccccc1)C(=O)[O-].[Gd+3] (stereo not shown) [Multihance, gadobenate]","Clearance, renal/hepatic ratio",96:4
